The text below walks through data of PMC4931344.

No constants are given. Whether binding was seen depends on the method and setting. Binding seen in cells or lysates may run through a third protein. Some results given as binding are weak or reduced against the parent protein; the word gives no strength. Sequences can lack the tags named with a protein.

Assay [1] addresses yeast Hsp90 (yHsp90, also known as Hsp82), endogenous (S. cerevisiae (endogenous in BY4741)) (UniProt P02829). In words: co-IP; BY4741 yeast expressing GAL1-LST4-GST grown on glucose or galactose at 30 °C for 8 h; endogenous yHsp90 immunoprecipitated, immunoblot for Lst4-GST. In general terms: A western blot detects proteins with antibodies after separation by electrophoresis.
A further assay addresses T1, cMyc–FNIP2 (UniProt Q9P278).
T1 sequence: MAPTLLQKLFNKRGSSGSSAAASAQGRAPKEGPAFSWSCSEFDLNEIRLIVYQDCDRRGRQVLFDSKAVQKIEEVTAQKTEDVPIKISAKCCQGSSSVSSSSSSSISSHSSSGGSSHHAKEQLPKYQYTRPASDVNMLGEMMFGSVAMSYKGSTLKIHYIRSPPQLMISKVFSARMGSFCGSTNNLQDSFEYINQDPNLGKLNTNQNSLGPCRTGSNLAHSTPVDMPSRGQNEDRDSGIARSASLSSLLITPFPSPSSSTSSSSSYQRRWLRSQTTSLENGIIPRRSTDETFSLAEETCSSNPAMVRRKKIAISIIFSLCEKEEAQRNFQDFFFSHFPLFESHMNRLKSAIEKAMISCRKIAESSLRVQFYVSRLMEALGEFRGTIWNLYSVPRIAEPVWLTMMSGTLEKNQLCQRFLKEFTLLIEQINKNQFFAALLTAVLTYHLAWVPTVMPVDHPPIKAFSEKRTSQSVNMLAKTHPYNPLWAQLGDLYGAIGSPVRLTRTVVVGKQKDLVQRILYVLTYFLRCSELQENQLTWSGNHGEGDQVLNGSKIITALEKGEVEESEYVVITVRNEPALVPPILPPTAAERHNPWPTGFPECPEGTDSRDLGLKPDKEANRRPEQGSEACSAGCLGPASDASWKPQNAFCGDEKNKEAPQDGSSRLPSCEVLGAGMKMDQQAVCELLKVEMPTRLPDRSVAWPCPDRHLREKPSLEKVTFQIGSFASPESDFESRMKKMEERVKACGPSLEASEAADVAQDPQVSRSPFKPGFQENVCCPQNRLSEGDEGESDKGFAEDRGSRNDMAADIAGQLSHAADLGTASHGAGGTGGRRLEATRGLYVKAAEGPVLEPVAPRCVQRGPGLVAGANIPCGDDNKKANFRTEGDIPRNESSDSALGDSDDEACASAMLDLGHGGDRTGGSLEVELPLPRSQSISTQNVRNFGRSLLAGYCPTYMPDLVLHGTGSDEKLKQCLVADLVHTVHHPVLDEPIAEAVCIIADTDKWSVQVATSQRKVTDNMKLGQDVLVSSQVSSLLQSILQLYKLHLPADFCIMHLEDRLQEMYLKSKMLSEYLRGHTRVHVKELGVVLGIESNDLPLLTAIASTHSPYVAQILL
In words: co-IP; sequential IP from co-transfected HEK293: anti-cMyc agarose, elution with cMyc peptides, dialysis, then anti-HA agarose; immunoblot.

The next assay addresses HA–FNIP1 (UniProt Q8TF40). The assay is described as above.

B1: Lst4–GST (protein, UniProt P34239 1-828)
chain: MLGNLLRNKTSSSGFEKSSEHSDFSSVVPNVPVYCKAASTGTTKTAAGALLDTAVNVEKPSEMLSTTSPPILDHISDDLKLKLFGSRDIPYSRPIDTLQNNGGLGTDKITSINEKTYAFRILIIEEAGQMACRNNYRDIFDYTTSKISNSMEQIRPSELKEYIFGSPVRSSDLTQCDKIRTIPNSDLVLITRIFYYTHQYNRIAISLCIPRILLPVVAESWSSISSWLTQTQKMLIGFLTKNRIMQENTGNYSNNSVIKLSNIDIRTHYPKEIEIMVQTLQKRVIPGLRSMSEIPRLFLYPETFKEFVHVWFKSIFNWIEIKDGPKLGFLPLLMAMIISDYRHTIRELKTSKIVILSGNMVVANKLLFILSALLEPKYKGQITIRRENIRSDSSAVSRNKSNNNFVDKPETELSTLTSTDNLLSRTENNSNHNYNNSNVSSNSIGSPNFHSLRKGWQIPNRRNSNTSVSVSSSESLAEVIQPSSFKSGSSSLHYLSSSISSQPGSYGSWFNKRPTISQFFQPSPSLKHNESWERLQTTAGNMQRTSSSSSLQQATSRLSLTTPQQSPSISEYDEYPWMGTPGSPNVGDVSHAPPLVKNISYKFPLKNVELKRDCQRISQDDLLDEAFERICQPSLADLNSTYEIFPGNSSYADILTTDSDIDDGLMNKPLELLPKYTMYLTHFNNFFQLQACPAGQESESRITNSMKIDLLKADYTRSLLVSLRSRDIRDVALKREFTGNNNNNSNQNIYDENFVGKRKYVLKQKTRKIFSCGKIGKLSTSLENCVNFVENSIKSAMMLYDDNGIDSELRDSEALRIFSSLVHYCNAG
Take B1: the binding entry in assay [1] is on record as “no binding”.

B2: HA–FNIP1 (protein, UniProt Q8TF40 1-1166)
chain: MAPTLFQKLFSKRTGLGAPGRDARDPDCGFSWPLPEFDPSQIRLIVYQDCERRGRNVLFDSSVKRRNEDISVSKLGSDAQVKVFGKCCQLKPGGDSSSSLDSSVTSSSDIKDQCLKYQGSRCSSDANMLGEMMFGSVAMSYKGSTLKIHQIRSPPQLMLSKVFTARTGSSICGSLNTLQDSLEFINQDNNTLKADNNTVINGLLGNIGLSQFCSPRRAFSEQGPLRLIRSASFFAVHSNPMDMPGRELNEDRDSGIARSASLSSLLITPFPSPNSSLTRSCASSYQRRWRRSQTTSLENGVFPRWSIEESFNLSDESCGPNPGIVRKKKIAIGVIFSLSKDEDENNKFNEFFFSHFPLFESHMNKLKSAIEQAMKMSRRSADASQRSLAYNRIVDALNEFRTTICNLYTMPRIGEPVWLTMMSGTPEKNHLCYRFMKEFTFLMENASKNQFLPALITAVLTNHLAWVPTVMPNGQPPIKIFLEKHSSQSVDMLAKTHPYNPLWAQLGDLYGAIGSPVRLARTVVVGKRQDMVQRLLYFLTYFIRCSELQETHLLENGEDEAIVMPGTVITTTLEKGEIEESEYVLVTMHRNKSSLLFKESEEIRTPNCNCKYCSHPLLGQNVENISQQEREDIQNSSKELLGISDECQMISPSDCQEENAVDVKQYRDKLRTCFDAKLETVVCTGSVPVDKCALSESGLESTEETWQSEKLLDSDSHTGKAMRSTGMVVEKKPPDKIVPASFSCEAAQTKVTFLIGDSMSPDSDTELRSQAVVDQITRHHTKPLKEERGAIDQHQETKQTTKDQSGESDTQNMVSEEPCELPCWNHSDPESMSLFDEYFNDDSIETRTIDDVPFKTSTDSKDHCCMLEFSKILCTKNNKQNNEFCKCIETVPQDSCKTCFPQQDQRDTLSILVPHGDKESSDKKIAVGTEWDIPRNESSDSALGDSESEDTGHDMTRQVSSYYGGEQEDWAEEDEIPFPGSKLIEVSAVQPNIANFGRSLLGGYCSSYVPDFVLQGIGSDERFRQCLMSDLSHAVQHPVLDEPIAEAVCIIADMDKWTVQVASSQRRVTDNKLGKEVLVSSLVSNLLHSTLQLYKHNLSPNFCVMHLEDRLQELYFKSKMLSEYLRGQMRVHVKELGVVLGIESSDLPLLAAVASTHSPYVAQILL
B2: the binding result with cMyc–FNIP2 and with HA–FNIP1 was “binds” each time.
